Test results published in publication PMC12024912, “Druggability Studies of Benzene Sulfonamide Substituted Diarylamide (E3) as a Novel Diuretic” (Biomedicines, 2025).

Tested on: SD rats
Assay: Long-term (7 d) diuretic activity in rats
Type: in vivo, rat
Conditions: Western blot
Method: In a single-dose administration experiment, male wild-type (WT) mice, UT-B^−/− mice, UT-A1^−/− mice, or SD rats were adapted in metabolic cages for 3 d. Food and water were provided ad libitum throughout the experiment. Prior to administration, the bladder of each animal was emptied through gentle abdominal massage, and urine was collected from the metabolic cages every 2 h. Compound E3, suspended in 0.5% CMC-Na at an appropriate concentration, was administered intragastric gavage to the mice or rats (0.16, 0.8, 4, or 20 mg/kg). Vehicle control comprised 0.5% (w/v) CMC-Na. Urinary parameters were determined through the following: volume: Gravimetric analysis (1 g/mL density assumption); osmolality: freezing-point osmometry (Micro-osmometer, Fisker Associates, Norwood, MA, USA); and urea: diacetyl oxime colorimetry (QuantiChrom® kit, Elabscience, Wuhan, China). […] Body weight was measured daily. […] Inner medulla and outer medulla tissue homogenates were prepared, and the supernatant after centrifugation was analyzed for solute concentration and osmolality. Urinary osmolality and urea concentration were measured as above. Serum Na^+, K^+, and Cl^− were measured in a clinical chemistry laboratory, while serum creatinine, ALT, and AST were measured through specific reagent kits (NJJC Bio, Nanjing, China). […]

CC(=O)c1ccc(C(=O)Nc2cccc(NS(=O)(=O)c3ccccc3)c2)o1 [Compound E3, 5-acetyl-N-(3-(phenylsulfonamido)phenyl)furan-2-carboxamide]
AQP2 expression in medullary tissue (20 mg/kg): lower than control rats
expression levels of UT-A1, UT-A2, UT-A3, UT-B and AQP3 in medullary tissue (4 and 20 mg/kg): did not significantly alter
